Results deposited as PubChem BioAssay AID504786 (Drosophila RNAi Screening Center, 2011)

Aim: 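Fly genes required for HIF-dependent transcription when hypoxia is mimicked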 (primary screen)
System: Drosophila S2 cells with a stable HIF luciferase reporter
Knock-down reagent: long dsRNA against Drosophila genes, about 0.2 µg dsRNA per well of a 384-well plate
Duration: three days of knock-down, then 20 h of DFO before reading
Conditions: desferrioxamine (DFO) at 100 µM, an iron chelator that mimics hypoxia, for 20 h
Measured: 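HIF reporter luminescence in cells given 100 µM DFO for 20 h, using the mouse ldh-a hypoxia-response element, scored as per-plate z-scores; higher means greater loss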
Reading the numbers: z-score: higher = stronger loss of HIF reporter signal
The screen tested about 21,000 reagents; below is an unselected part of those with a known target gene and a result. 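Primary screen; positive scores mean lost reporter signal, so the sign may be inverted from the usual convention.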 The numbers tell different reagents against one gene apart.

For CG14626 the deposit lists z-score, replicate 1 = -0.3; z-score, replicate 2 = -0.1. Ser7 showed z-score, replicate 1 = -0.3; z-score, replicate 2 = -0.1. With knock-down of Gdap1 the results were z-score, replicate 1 = -0.2; z-score, replicate 2 = -0.7. Knock-down of CG7252 came out at: z-score, replicate 1 = -0.3; z-score, replicate 2 = -0.3. After knock-down of pain, the record shows z-score, replicate 1 = -0.2; z-score, replicate 2 = 1.5.

In a second layout: 2 of the entries above.
| gene knocked down | reagent no. | z-score, replicate 1 | z-score, replicate 2 |
| --- | --- | --- | --- |
| CG7252 | 1 | -0.3 | -0.3 |
| pain | 1 | -0.2 | 1.5 |

Additional records:
Against Grl58a, the entry reads z-score, replicate 1 = -0.2; z-score, replicate 2 = -0.2. Knock-down of siz #1 came out at: z-score, replicate 1 = -0.2; z-score, replicate 2 = -0.1. Depletion of siz #2 resulted in: z-score, replicate 1 = -0.1; z-score, replicate 2 = -0.2. Depletion of siz #3 gave: z-score, replicate 1 = -0.1; z-score, replicate 2 = 0. For CG14841 the deposit lists z-score, replicate 1 = -0.1; z-score, replicate 2 = -0.6. With knock-down of Nepl3 the results were z-score, replicate 1 = -0.2; z-score, replicate 2 = -0.4.

Knock-down of SoYb came out at: z-score, replicate 1 = -0.2; z-score, replicate 2 = -0.4. With knock-down of CG15880, the record shows z-score, replicate 1 = -0.2; z-score, replicate 2 = -0.6. Against Fak, the entry reads z-score, replicate 1 = -0.4; z-score, replicate 2 = -0.7. yki scored z-score, replicate 1 = 2.1; z-score, replicate 2 = 1.9. Knock-down of ArfGAP3 gave: z-score, replicate 1 = -0.4; z-score, replicate 2 = -1.
